PubChem BioAssay AID504793 – Drosophila RNAi Screening Center, 2011
The deposit covers about 23,000 reagents; shown is a random part of those that have a named target and a result. Of all reagents, 62 (0.27%) are marked active. 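Calls come from follow-up tests whose scores are not deposited, so confirmed genes may have low counts here; counts are not normalised per plate.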 Raw values vary from plate to plate and are shown uncorrected. A plus sign joins genes that one reagent is predicted to hit.

Purpose: 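Genes required for cells to halt at G2/M after double-strand DNA breaks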 (primary screen)
System: Drosophila S2R+ cells
Reagent: long dsRNA against Drosophila genes, about 0.25 µg dsRNA per well
Timing: 4 days of dsRNA, then 4 hours of drug before read-out
Challenge: doxorubicin 0.5 µM for 4 hours to cause double-strand breaks, in cells also given a low, harmless dose of dsRNA against nbs to sensitise the assay
Measurement: 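Per-well count of mitotic cells stained for phospho-histone H3 after doxorubicin exposure, used as mitotic index; counts are raw and not normalised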
Direction: mitotic cells: higher = more cells in mitosis, weaker G2 arrest
Rule for the call: 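Genes are called active only when high mitotic counts were reproduced with independent dsRNAs and mitosis was checked for delay without damage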
Meaning of the calls: active = confirmed in follow-up tests; inactive = not confirmed

gene	DRSC id	mitotic cells, replicate 1	outcome
CG11779 + CG5835	DRSC15886	15	inactive
CG11779 + CG5835	DRSC27415	4	inactive
SmE (GeneID 34080)	DRSC02680	2	inactive
Polr1E (GeneID 42201)	DRSC14506	11	inactive
Polr1E (GeneID 42201)	DRSC15358	6	inactive
CG17508 (GeneID 49893)	DRSC07771	4	inactive
CG12493 (GeneID 38575)	DRSC08279	8	inactive
CG12493 (GeneID 38575)	DRSC25535	7	inactive
Mco1 (GeneID 34258)	DRSC02720	6	inactive
Rcd4 (GeneID 34158)	DRSC02597		inactive
boil (GeneID 31416)	DRSC17872	6	inactive
YME1L (GeneID 37636)	DRSC04378	9	inactive
CG30356 (GeneID 246562)	DRSC05119	10	inactive
CG42299 + CG42300	DRSC19680	16	inactive
CG42299 + CG42300	DRSC19815	5	inactive
CG13215 (GeneID 36182)	DRSC06337	10	inactive
CG5645 (GeneID 39382)	DRSC10532	4	inactive
CG11619 (GeneID 40072)	DRSC09849	5	inactive
CG7675 (GeneID 42211)	DRSC16280	10	inactive
CG7675 (GeneID 42211)	DRSC26897	5	inactive
Dscam2 (GeneID 38788)	DRSC10198	1	inactive
Dscam2 (GeneID 38788)	DRSC11018	9	inactive
Dscam2 (GeneID 38788)	DRSC11019	10	inactive
Dscam2 (GeneID 38788)	DRSC22526	9	inactive
Dscam2 (GeneID 38788)	DRSC28220	7	inactive
CG14022 (GeneID 33763)	DRSC02352	3	inactive
CG14022 (GeneID 33763)	DRSC27400	8	inactive
CG15865 (GeneID 32641)	DRSC19733	4	inactive
CG6567 + CG4565	DRSC15599	2	inactive
CG4854 (GeneID 42391)	DRSC15663	13	inactive
CG4854 (GeneID 42391)	DRSC27454	7	inactive
rl (GeneID 3354888)	DRSC07833	4	inactive
rl (GeneID 3354888)	DRSC20742	21	inactive
rl (GeneID 3354888)	DRSC21814	6	inactive
Vajk3 (GeneID 34812)	DRSC01883	3	inactive
Vajk3 (GeneID 34812)	DRSC25405	8	inactive
CG9231 (GeneID 40130)	DRSC11054	4	inactive
Mst84Db (GeneID 40888)	DRSC12542	5	inactive
Mst84Db (GeneID 40888)	DRSC12598	3	inactive
Mst84Db (GeneID 40888)	DRSC29236	5	inactive
CG17784 (GeneID 42909)	DRSC15268	17	inactive
CG5111 (GeneID 43085)	DRSC15717	12	inactive
CG31922 (GeneID 319028)	DRSC21703	7	inactive
CG31922 (GeneID 319028)	DRSC26533	11	inactive
CG9899 (GeneID 37676)	DRSC04597	8	inactive
Lis-1 (GeneID 36791)	DRSC07459	81	inactive
CG42268 (GeneID 39145)	DRSC10171	9	inactive
CG42268 (GeneID 39145)	DRSC10702	7	inactive
CG42268 (GeneID 39145)	DRSC21797	11	inactive
CG42268 (GeneID 39145)	DRSC25299	5	inactive
CG42268 (GeneID 39145)	DRSC29387	2	inactive
CG15919 (GeneID 50216)	DRSC06594	6	inactive
Fas3 (GeneID 35097)	DRSC03326	6	inactive
Fas3 (GeneID 35097)	DRSC22776	11	inactive
Fas3 (GeneID 35097)	DRSC28665		inactive
LanB1 (GeneID 34068)	DRSC03360	4	inactive
LanB1 (GeneID 34068)	DRSC27259	8	inactive
CG14427 (GeneID 31651)	DRSC17921	12	inactive
CG14427 (GeneID 31651)	DRSC29421	8	inactive
TMEM216 (GeneID 41035)	DRSC16378	2	inactive
TMEM216 (GeneID 41035)	DRSC25583	5	inactive
CG12374 (GeneID 36410)	DRSC06143	11	inactive
bou (GeneID 31644)	DRSC17924	12	inactive
Dp (GeneID 36461)	DRSC07402	9	inactive
Jhbp5 (GeneID 41949)	DRSC14240	5	inactive
beta-Spec (GeneID 32746)	DRSC20311	6	inactive
Naa40 (GeneID 43500)	DRSC16265	9	inactive
MBD-R2 (GeneID 41498)	DRSC14180	56	active
CG3803 (GeneID 37809)	DRSC04420	7	inactive
ChT (GeneID 42245)	DRSC16296	6	inactive
CG6184 (GeneID 42345)	DRSC15986	10	inactive
CG12983 (GeneID 40319)	DRSC11692	3	inactive
CG33791 + CG12105 + CG18170	DRSC08387	9	inactive
kl-3 (retired record) (GeneID 5740653)	DRSC20730	4	inactive
kl-3 (retired record) (GeneID 5740653)	DRSC20891	8	inactive
kl-3 (retired record) (GeneID 5740653)	DRSC20934	17	inactive
ScsbetaG (GeneID 44001)	DRSC11294	3	inactive
ScsbetaG (GeneID 44001)	DRSC26044	8	inactive
CG12868 (GeneID 36620)	DRSC06207	1	inactive
CG12868 (GeneID 36620)	DRSC26377	4	inactive
Nprl3 (GeneID 39550)	DRSC11044	5	inactive
UK114 (GeneID 34897)	DRSC01973	4	inactive
CG15022 (GeneID 38549)	DRSC08476	4	inactive
CG15022 (GeneID 38549)	DRSC25079	2	inactive
aub (GeneID 34524)	DRSC03486	2	inactive
aub (GeneID 34524)	DRSC26878	7	inactive
Doc3 (GeneID 39036)	DRSC10480	2	inactive
Doc3 (GeneID 39036)	DRSC28205	4	inactive
CG4678 (GeneID 32652)	DRSC19911	14	inactive
CG4678 (GeneID 32652)	DRSC19912	8	inactive
CG10435 (GeneID 40948)	DRSC14246	9	inactive
CG10435 (GeneID 40948)	DRSC25312	2	inactive
Gcna (GeneID 31139)	DRSC18553	7	inactive
CG14247 (GeneID 43221)	DRSC14742	9	inactive
CG14247 (GeneID 43221)	DRSC24048	4	inactive
CG8149 (GeneID 41137)	DRSC16391	4	inactive
ATbp (GeneID 5740592)	DRSC20906	11	inactive
ATbp (GeneID 5740592)	DRSC29661	8	inactive
Csl4 (GeneID 34548)	DRSC02944	5	inactive
Csl4 (GeneID 34548)	DRSC22664	10	inactive
CG18011 (GeneID 36068)	DRSC06697	6	inactive
CG18011 (GeneID 36068)	DRSC06706	6	inactive
Rrp45 (GeneID 32665)	DRSC20198	14	inactive
Rrp45 (GeneID 32665)	DRSC29319	5	inactive
CG4822 (GeneID 33170)	DRSC00669	5	inactive
AIMP1 (GeneID 35892)	DRSC07118	3	inactive
AIMP1 (GeneID 35892)	DRSC25922	4	inactive
CG8187 (GeneID 36720)	DRSC07099	4	inactive
vret (GeneID 42695)	DRSC15640	9	inactive
CG12594 (GeneID 41416)	DRSC14532	7	inactive
CG12594 (GeneID 41416)	DRSC27229	3	inactive

Single entries from the list.
Under “outcome”, Csl4 (GeneID 34548) [DRSC22664] has inactive
CG12493 (GeneID 38575) [DRSC25535], outcome → inactive
For “outcome”, CG4854 (GeneID 42391) [DRSC27454] has inactive
Under “mitotic cells, replicate 1”, rl (GeneID 3354888) [DRSC20742] reads 21
Under “outcome”, MBD-R2 (GeneID 41498) [DRSC14180] is entered as active
Value for bou (GeneID 31644) [DRSC17924] in “outcome”: inactive
